Out of some 31,000 sequences screened, about 1,400 (4.5%) were called active.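 Rule for the calls: active = median seed-adjusted z-score above 1 or below -1; inactive = the rest.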 Some of the results follow.
experiment: Novel Modifiers of Survival Motor Neuron (SMN) Protein: Gene Identification via Genome-wide siRNA Screen; settings: HEK293T SMN2-luciferase reporter, siRNA knockdown, 72 h; actives lie on both sides;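 note: luminescence tracks full-length SMN protein made from the SMN2 reporter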
Outline: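 Steps: spot 1 pmol siRNA, add Lipofectamine RNAiMax in serum-free DMEM, seed HEK293T SMN2–luciferase reporter cells; incubate 72 h at 37 °C; add ONE-Glo; normalize luminescence to control siRNA, log10, MAD. Candidates: |MAD| > 1.0.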

Sequence | median seed-adjusted z-score
GAAAGAUGUUGGGAAUAAATT against ST6GAL2 | inactive: 0.054
CUGUUGGUAUUGUCCACAATT against MAL | inactive: 0.0733
GGAGUCAGCAUCUACCUAATT against SLC22A6 | inactive: 0.135
GCGCAGCUCUGGAAUUUGATT against OXCT2 | inactive: -0.449
GUCCAAGCCUUAAACAUCATT against IDS | inactive: -0.074
CUACGUCUCUUAUCGUCGATT against SORCS2 | inactive: 0.648
AGUACUACCUGGACCUCAATT against PURB | inactive: 0
GGCUAGAGCUAAGAGUGAATT against NAB1 | inactive: -0.67
GCCUUGAACCUAGGACCAATT against PRAF2 | inactive: -0.326
CUAGAUAUCGUGGACCUCATT against PYDC1 | active: -1.44
AUGUUAGCUUUGAAACAAATT against AMD1 | inactive: -0.211
CCUACUAUCAAGAUUCAAATT against HERC3 | inactive: -0.0884
GCUCGUGGAUUGUUGGGAATT against MFSD8 | inactive: -0.461
GCACUGUCACUAAGCAGAATT against CHEK2 | inactive: 0.585
GCUCUGACUUUGGACCUCATT against KRTAP5-6 | inactive: 0.185
GGACCUCAGACUGAAUCAATT against GABRE | inactive: 0.211
GCUUCUAAAUGUGAGACGATT against GCNT4 | inactive: -0.0629
CGGUGACUAUGAAAGAAAUTT against RASL11B | inactive: 0.507
GGAUACCAGAUGGAUGAAATT against FBLN5 | inactive: -0.0832
AACUGCUGCUCGCAAGGAATT against MLNR | inactive: -0.038
GAUCAACUGUGGAAAUAUUTT against KISS1R | inactive: -0.299
CCUCAGUACCACGCAGAAATT against APOBEC3B | inactive: 0
GCAAGAUCGUGACUUCGGATT against COL17A1 | inactive: 0.252
ACCUCCUCCUGAUCGAUGATT against ZNF524 | inactive: 0.00173
GCUGCACAAUGGUGUGAAATT against MED16 | inactive: -0.6
GAGGUAAUCUGGGUGCACATT against PARK7 | inactive: -0.357
ACAGUGCUUCGAUGACUUUTT against TNFRSF10B | inactive: 0.064

Given tab-delimited: part of the list above.
Sequence	median seed-adjusted z-score
GCUUCUAAAUGUGAGACGATT against GCNT4	inactive: -0.0629
CGGUGACUAUGAAAGAAAUTT against RASL11B	inactive: 0.507
GGAUACCAGAUGGAUGAAATT against FBLN5	inactive: -0.0832

(further entries)

Sequence | median seed-adjusted z-score
GGACUUUAAUGGAGGAGGUTT against KCNK6 | inactive: -0.199
CGAGCUUUUAUUAACGGAATT against LRP1B | inactive: -0.0589
GUUACAACCAAACAGCAUATT against CD244 | inactive: 0
CAUCGAGCCUUGAAGGGUATT against ANXA3 | inactive: -0.156
CGGUCAUGUUUGCUAUGUATT against ARL6IP2 | inactive: 0.274
GAGAUUAUAUCAUACGAGATT against HCN1 | inactive: -0.107
GGUUACCAGGUUACAAUGATT against OTC | inactive: 0.496
CUUAAGAUCCCACACCUCATT against SLC39A4 | inactive: 0.0304
GCUUUCGUCUGGAACCUGATT against ANGPTL1 | inactive: -0.556
GCCUCACAGUUUUUCGAGATT against CALB1 | inactive: 0.191
GUGUAGACAUAGUCUAAAATT against ZNF532 | inactive: -0.0289
AGUUCGGGCUUAUGAAGAATT against TUSC4 | inactive: 0.312
GGACAUCGGCUUUGAAGAUTT against PLA2G15 | inactive: 0
GCUAUCAUCUUGCUCCCGATT against BDP1 | inactive: -0.0359
CAAUCUAUAUAUCCCGAAUTT against LIN7C | inactive: 0.021
CCUCGAGACUAUACGGUUATT against MED26 | active: -1.86
GUAUCCAUGUGCAUUUUAATT against NT5E | inactive: 0.199
CCUACAAGGUGAACCCAGATT against SHMT1 | inactive: 0.179
GGAAAUUUGGAAACCGGAUTT against POMT2 | inactive: -0.614
AGGUCAGGAUCGCAGUGAATT against DAB1 | inactive: 0.307
GGACUACUACAGCGACUAUTT against ZNF598 | inactive: -0.303
GCCCAUUCAGAGAUCCUCATT against STX5 | inactive: 0.108
CAGUACAGGUAUACCCGAATT against CDO1 | inactive: 0.336
GGAUGACUACGGUGAAUUUTT against RNF216 | inactive: -0.246
GGUUGUAGACAUAAUCCAATT against SERPINA9 | inactive: 0.497
CAACCCUUGUCAUCAAACATT against POLE2 | inactive: -0.584

Source: PubChem BioAssay AID1347426 (Functional Genomics Laboratory (NCATS/FGL), 2020)
